Source: publication PMC8598058
Where two headings read alike, the source gives them in different places. No constants are given. Whether binding was seen depends on the method and setting. Binding seen in cells or lysates may run through a third protein. These calls come from enrichment with a bait or labelling near it, and not all partners need be listed. For part of these data: No binding means not detected with the bait. For part of these data: Sequences can lack the tags named with a protein.

Chains of the proteins cited; added tags and fusions are not shown.
UniProt Q92769: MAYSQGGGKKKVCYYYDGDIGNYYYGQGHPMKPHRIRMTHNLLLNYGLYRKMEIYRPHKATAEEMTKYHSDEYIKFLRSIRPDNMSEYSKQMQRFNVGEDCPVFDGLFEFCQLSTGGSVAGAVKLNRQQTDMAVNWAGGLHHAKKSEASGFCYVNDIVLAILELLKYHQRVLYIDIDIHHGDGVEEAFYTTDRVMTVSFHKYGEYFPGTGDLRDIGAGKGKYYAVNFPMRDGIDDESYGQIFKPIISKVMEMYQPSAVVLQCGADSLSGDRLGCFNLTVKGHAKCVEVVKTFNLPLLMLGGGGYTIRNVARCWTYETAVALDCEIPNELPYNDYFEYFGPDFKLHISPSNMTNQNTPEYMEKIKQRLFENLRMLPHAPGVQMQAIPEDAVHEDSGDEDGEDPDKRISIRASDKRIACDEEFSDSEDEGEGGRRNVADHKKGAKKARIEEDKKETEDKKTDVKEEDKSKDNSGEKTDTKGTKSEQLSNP

T1: SIN3A (human (endogenous in HEK293T, MCF-10A and MDA-MB-231)) (UniProt Q96ST3)
T1 sequence: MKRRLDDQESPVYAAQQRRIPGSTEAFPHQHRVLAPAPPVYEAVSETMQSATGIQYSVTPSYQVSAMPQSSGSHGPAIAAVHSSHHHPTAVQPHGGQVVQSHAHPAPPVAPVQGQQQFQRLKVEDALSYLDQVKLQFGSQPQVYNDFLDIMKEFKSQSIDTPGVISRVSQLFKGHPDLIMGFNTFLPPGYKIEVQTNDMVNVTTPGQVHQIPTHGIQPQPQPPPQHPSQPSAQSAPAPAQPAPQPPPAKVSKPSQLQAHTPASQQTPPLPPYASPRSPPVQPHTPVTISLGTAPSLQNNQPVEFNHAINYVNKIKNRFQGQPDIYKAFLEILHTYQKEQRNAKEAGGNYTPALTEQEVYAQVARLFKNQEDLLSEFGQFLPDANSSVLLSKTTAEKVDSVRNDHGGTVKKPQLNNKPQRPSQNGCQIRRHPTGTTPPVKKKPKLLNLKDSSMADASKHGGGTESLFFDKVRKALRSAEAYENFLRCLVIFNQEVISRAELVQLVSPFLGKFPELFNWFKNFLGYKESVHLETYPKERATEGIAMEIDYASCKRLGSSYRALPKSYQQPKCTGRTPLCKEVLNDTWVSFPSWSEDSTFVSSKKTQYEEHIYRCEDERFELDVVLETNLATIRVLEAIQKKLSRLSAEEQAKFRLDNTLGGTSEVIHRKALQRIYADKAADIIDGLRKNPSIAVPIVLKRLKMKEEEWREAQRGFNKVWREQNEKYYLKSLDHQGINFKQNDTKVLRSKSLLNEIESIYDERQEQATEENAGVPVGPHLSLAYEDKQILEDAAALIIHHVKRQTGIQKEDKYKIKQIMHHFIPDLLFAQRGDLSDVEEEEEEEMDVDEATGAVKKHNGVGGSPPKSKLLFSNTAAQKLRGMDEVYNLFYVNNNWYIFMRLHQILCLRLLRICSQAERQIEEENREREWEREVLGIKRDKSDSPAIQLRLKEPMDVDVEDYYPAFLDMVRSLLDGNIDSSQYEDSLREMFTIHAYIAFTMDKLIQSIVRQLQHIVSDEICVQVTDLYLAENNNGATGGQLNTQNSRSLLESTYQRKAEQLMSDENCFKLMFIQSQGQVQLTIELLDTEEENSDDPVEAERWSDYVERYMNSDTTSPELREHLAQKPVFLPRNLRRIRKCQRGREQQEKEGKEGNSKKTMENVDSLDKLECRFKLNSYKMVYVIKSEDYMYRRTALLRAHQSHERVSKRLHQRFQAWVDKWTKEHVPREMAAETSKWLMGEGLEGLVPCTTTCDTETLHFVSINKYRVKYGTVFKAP

T2: Halo-tagged BRMS1^S237D
T2 sequence: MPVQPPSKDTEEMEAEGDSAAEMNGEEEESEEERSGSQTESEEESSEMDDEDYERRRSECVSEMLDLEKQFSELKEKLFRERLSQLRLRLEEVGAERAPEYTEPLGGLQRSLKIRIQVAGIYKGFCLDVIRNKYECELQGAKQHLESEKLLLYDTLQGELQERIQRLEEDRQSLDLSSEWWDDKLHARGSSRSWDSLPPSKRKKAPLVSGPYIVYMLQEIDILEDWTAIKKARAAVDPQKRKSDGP

T3: Halo-tagged BRMS1 wild-type (BRMS1^WT), Breast Cancer Metastasis Suppressor 1
T3 sequence: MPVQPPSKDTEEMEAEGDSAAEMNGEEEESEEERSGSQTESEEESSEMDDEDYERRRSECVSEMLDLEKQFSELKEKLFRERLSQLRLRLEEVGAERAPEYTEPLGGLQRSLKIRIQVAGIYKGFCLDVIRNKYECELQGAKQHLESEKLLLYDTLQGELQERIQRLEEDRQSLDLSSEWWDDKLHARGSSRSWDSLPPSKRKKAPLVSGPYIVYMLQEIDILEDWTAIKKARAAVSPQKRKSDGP

T4: Halo-tagged BRMS1^S237A
T4 sequence: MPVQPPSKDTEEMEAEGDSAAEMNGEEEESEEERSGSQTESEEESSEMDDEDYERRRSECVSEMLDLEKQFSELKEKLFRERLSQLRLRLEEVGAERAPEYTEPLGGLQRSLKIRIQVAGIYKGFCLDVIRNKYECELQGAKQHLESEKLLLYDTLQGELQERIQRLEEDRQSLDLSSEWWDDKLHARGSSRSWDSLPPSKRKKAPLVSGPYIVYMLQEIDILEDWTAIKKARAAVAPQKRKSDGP


Tests used:
[1] = target: T1, SIN3A (human (endogenous in HEK293T, MCF-10A and MDA-MB-231)); assay: condition: only in nuclear lysate of MDA-MB-231 cells; affinity purification with mass spectrometry; co-IP of endogenous SIN3A with a polyclonal antibody from nuclear lysate of MDA-MB-231 cells; gel, in-gel digestion, MALDI-TOF
[2] = target: T1, SIN3A (human (endogenous in HEK293T, MCF-10A and MDA-MB-231)); assay: affinity purification with mass spectrometry; co-IP of endogenous SIN3A with a polyclonal antibody from nuclear lysate of MCF-10A cells; gel, in-gel digestion, MALDI-TOF
Halo-tagged BRMS1^S237D [3] = target: T2, Halo-tagged BRMS1^S237D; assay: affinity purification with mass spectrometry; Halo-BRMS1 constructs transfected in HEK293T; lysate (50 mM Tris-HCl pH 7.5, 150 mM NaCl, 1% Triton X-100, 0.1% sodium deoxycholate) incubated overnight at 4°C with Magne HaloTag beads; TEV elution; MudPIT; Halo tag alone as negative control; three replicates a bait; QSPEC and TopS scoring
[4] = target: T3, Halo-tagged BRMS1 wild-type (BRMS1^WT), Breast Cancer Metastasis Suppressor 1; assay: as above
Halo-tagged BRMS1^S237A [5] = target: T4, Halo-tagged BRMS1^S237A; assay: as above
Halo-tagged BRMS1^S237D [6] = target: T2, Halo-tagged BRMS1^S237D; assay: as above; remark: listed apart in the source
Halo-tagged BRMS1^S237A [7] = target: T4, Halo-tagged BRMS1^S237A; assay: as above; remark: listed apart in the source
[8] = target: T1, SIN3A (human (endogenous in HEK293T, MCF-10A and MDA-MB-231)); assay: affinity purification with mass spectrometry; co-IP of endogenous SIN3A with a polyclonal antibody from nuclear lysate of MDA-MB-231 cells; gel, in-gel digestion, MALDI-TOF

binding [1]	binding (Halo-tagged BRMS1^S237D [3])	binding [4]	binding (Halo-tagged BRMS1^S237A [5])	binding (Halo-tagged BRMS1^S237D [6])	binding (Halo-tagged BRMS1^S237A [7])	binding [8]	Molecule	binding [2]
no binding	binds	binds	binds	–	–	–	HDAC2 (from UniProt Q92769 1-488)	binds
–	–	–	–	binds	binds	–	BBX (protein, UniProt Q8WY36 1-941) MKGSNRNKDHSAEGEGVGKRPKRKCLQWHPLLAKKLLDFSEEEEEEDEEEDIDKVQLLGADGLEQDVGETEDDESPEQRARRPMNAFLLFCKRHRSLVRQEHPRLDNRGATKILADWWAVLDPKEKQKYTDMAKEYKDAFMKANPGYKWCPTTNKPVKSPTPTVNPRKKLWAFPSDSSRDLPSPKKAKTEEMPQLNFGMADPTQMGGLSMLLLAGEHALGTPEVSSGTCRPDVSESPELRQKSPLFQFAEISSSTSHSDASTKQCQTSALFQFAEISSNTSQLGGAEPVKRCGKSALFQLAEMCLASEGMKMEESKLIKAKESDGGRIKELEKGKEEKEIKMEKTDETRLQKEAEFEKSAKENLRDSKELRNFEALQIDDIMAIKMEDPKEIRKEELEEDHKCSHFPDFSYSASSKIIISDVPSRKDHMCHPHGIMIIEDPAALNKPEKLKKKKKKSKMDRHGNDKSTPKKTCKKRQSSESDIESVIYTIEAVAKGDWGIEKLGDTPRKKVRTSSSGKGSILDAKPPKKKVKSREKKMSKEKSSDTTKESRPPDFISISASKNISGETPEGIKAEPLTPMEDALPPSLSGQAKPEDSDCHRKIETCGSRKSERSCKGALYKTLVSEGMLTSLRANVDRGKRSSGKGNSSDHEGCWNEESWTFSQSGTSGSKKFKKTKPKEDCLLGSAKLDEEFEKKFNSLPQYSPVTFDRKCVPVPRKKKKTGNVSSEPTKTSKGPFQSQKKNLFHKIVSKYKHKKEKPNVPEKGSGDKWSNKQLFLDAIHPTEAIFSEDRNTMEPVHKVKNIPSIFNTPEPTTTQEPLVGSQKRKARKTKITHLVRTADGRVSPAGGTLDDKPKEQLQRSLPKATETDCNDKCSHNTEVGETRSSTPEMPAVSAFFSLAALAEVAAMENVHRGQRSTPLTHDGQPKEMPQAPVLISCADQ	–
–	–	–	–	–	–	binds	BRMS1 (endogenous) (protein, UniProt Q9HCU9 1-246) MPVQPPSKDTEEMEAEGDSAAEMNGEEEESEEERSGSQTESEEESSEMDDEDYERRRSECVSEMLDLEKQFSELKEKLFRERLSQLRLRLEEVGAERAPEYTEPLGGLQRSLKIRIQVAGIYKGFCLDVIRNKYECELQGAKQHLESEKLLLYDTLQGELQERIQRLEEDRQSLDLSSEWWDDKLHARGSSRSWDSLPPSKRKKAPLVSGPYIVYMLQEIDILEDWTAIKKARAAVSPQKRKSDGP	no binding (only in nuclear lysate of MCF-10A cells)
